Experimental data: patent US20150218213A1, “INHIBITORS OF ALPHA6 INTEGRIN/E-CADHERIN COMPLEX” (Università degli Studi di Torino, priority 2012, published 2015)
Results are given in words; binding and its absence hold for the method and conditions named. Some entries that bind do so weakly or less than the wild type.

Protein sequences, listed by entry. Tags and fused reporters are not part of them. Lines headed by an entry give the natural chain unless they say otherwise; changes in a name come on top.
UniProt P16144: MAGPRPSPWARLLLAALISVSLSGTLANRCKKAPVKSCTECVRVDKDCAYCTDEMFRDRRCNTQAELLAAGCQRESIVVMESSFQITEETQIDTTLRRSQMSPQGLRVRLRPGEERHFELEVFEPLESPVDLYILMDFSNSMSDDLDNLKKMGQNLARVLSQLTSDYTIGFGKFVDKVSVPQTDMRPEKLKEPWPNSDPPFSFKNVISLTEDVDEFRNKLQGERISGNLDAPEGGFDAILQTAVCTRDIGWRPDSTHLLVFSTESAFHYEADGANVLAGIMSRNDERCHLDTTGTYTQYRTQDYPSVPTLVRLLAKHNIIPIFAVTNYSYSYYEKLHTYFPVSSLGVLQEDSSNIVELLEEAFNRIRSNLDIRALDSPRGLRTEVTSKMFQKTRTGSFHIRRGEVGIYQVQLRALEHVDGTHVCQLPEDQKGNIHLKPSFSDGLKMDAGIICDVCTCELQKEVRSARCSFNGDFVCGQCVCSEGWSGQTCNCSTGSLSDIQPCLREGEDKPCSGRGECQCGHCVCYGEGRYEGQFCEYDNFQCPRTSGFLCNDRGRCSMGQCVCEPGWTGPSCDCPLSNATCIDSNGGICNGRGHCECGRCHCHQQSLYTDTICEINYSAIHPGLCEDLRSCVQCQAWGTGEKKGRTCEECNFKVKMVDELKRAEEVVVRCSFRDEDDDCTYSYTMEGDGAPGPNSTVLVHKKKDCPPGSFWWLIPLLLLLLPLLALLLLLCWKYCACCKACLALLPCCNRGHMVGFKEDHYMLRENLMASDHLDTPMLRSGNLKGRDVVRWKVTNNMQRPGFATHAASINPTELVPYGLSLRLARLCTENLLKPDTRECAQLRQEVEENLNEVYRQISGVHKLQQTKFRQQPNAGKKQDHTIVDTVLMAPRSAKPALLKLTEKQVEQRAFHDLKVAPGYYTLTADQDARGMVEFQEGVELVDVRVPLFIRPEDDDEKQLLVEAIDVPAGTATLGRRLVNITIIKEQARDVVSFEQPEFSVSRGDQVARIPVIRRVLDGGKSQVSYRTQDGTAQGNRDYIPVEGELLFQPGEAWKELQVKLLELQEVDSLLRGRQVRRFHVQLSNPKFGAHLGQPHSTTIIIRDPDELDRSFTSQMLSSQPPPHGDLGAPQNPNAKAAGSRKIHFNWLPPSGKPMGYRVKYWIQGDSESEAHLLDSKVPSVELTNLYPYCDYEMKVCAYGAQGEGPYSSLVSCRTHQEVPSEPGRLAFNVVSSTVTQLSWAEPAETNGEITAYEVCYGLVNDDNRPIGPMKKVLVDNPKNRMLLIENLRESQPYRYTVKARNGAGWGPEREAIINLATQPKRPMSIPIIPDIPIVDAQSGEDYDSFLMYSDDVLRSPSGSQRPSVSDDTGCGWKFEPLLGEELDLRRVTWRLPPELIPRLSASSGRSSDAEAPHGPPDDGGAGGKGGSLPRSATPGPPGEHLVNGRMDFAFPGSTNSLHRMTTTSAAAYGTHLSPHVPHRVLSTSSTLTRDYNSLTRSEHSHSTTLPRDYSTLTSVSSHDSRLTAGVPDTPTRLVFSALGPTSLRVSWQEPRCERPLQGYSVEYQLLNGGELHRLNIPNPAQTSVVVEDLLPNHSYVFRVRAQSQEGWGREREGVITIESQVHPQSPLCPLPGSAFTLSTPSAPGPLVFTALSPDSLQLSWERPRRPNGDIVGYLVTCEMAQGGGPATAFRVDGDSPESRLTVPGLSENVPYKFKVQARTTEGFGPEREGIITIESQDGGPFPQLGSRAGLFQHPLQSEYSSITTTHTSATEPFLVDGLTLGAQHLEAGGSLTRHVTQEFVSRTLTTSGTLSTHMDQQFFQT

Experiments:
α6β4 integrin (human) [1] = molecular target: α6β4 integrin (human) (UniProt P16144); assay: affinity column of immobilised peptide loaded with lysates of human liver metastases, elution with peptide, ELISA for integrin subunits
α6β4 integrin (human) [2] = molecular target: α6β4 integrin (human) (UniProt P16144); assay: affinity column fractions, phage binding assay and ELISA for integrin subunits

Binder: CGIYRLRSC [… synthetic peptide]
- binding (α6β4 integrin (human) [1]): binds
- binding (α6β4 integrin (human) [2]): binds
